The assay is described as follows: qHTS Assay for Lipid Storage Modulators in Drosophila S3 Cells.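 As to cell number change: cells counted by Cell Tracker Red CMTPX staining in the red channel.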 To be noted: BODIPY lipid droplet fluorescence, 18-24 h; for cell number change: measured here: cell count max response, cells fed with added oleic acid. An outline of the steps: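 Drosophila S3 cells loaded with oleic acid (400 uM, as added) and compounds at several concentrations; lipid droplets imaged by 488-nm laser-scanning cytometry, 500–530 nm intensity and object ratio to cell channel. Percent activity normalized to 20 uM Triacsin C.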
On the technique in general: qHTS replaces the single test concentration by a dilution series.

The mark [1] stands for this setting: measured here: cell number channel AC50, cells fed with added oleic acid.
Where [2] appears, read: measured here: lipid fluorescence (Fed channel) AC50, cells fed with added oleic acid.

Structures are written as SMILES. Some of the results follow. Further columns of the screen follow, without active or inactive calls. Most of these compounds were active or inconclusive in the main read-out, so they are no random draw. The note in brackets gives the kind of curve behind each potency; many fits are weak.

Consider `CC1(C)CC(C)(O)P(=O)(c2ccccc2)O1` (stereo not given), for which the cell number change is -206%. Also, the AC50 (commonly the concentration giving half of the maximal activity seen) under setting [1] was 6.51 µM [falling, partial curve]. Further, the AC50 under setting [2] was 5.8 µM [falling, full curve].
For the molecule `O=C(O)c1ccc(Cl)cc1NC(=O)C1CCCO1` (stereo not given), the cell number change is -3.83%. Further, the AC50 under setting [2] was 0.082 µM [falling, full curve, poor fit].
For the molecule `Cc1ccc(OCCCn2ccnc2)c(Br)c1`, the cell number change is -16%. In addition, the AC50 under setting [2] was 6.51 µM [falling, single point].
Consider `O=C1N(CN2CCN(c3cccc(Cl)c3)CC2)c2ccccc2C12OCCCO2`, for which the cell number change is 0.879%. Besides, under setting [2], the AC50 is 6.51 µM [falling, single point].
For the molecule `CCCNC(=O)COC(=O)CCC(=O)c1cccs1`, the cell number change is -45.2%. For the same molecule, under setting [1], the AC50 was 32.6 µM [falling, single point].
For the molecule `COc1ccc(-c2csc(NC(=O)C3CSC4(C)CCC(=O)N34)n2)cc1` (stereo not given), the cell number change worked out at 25.2%.
Regarding `CC1S/C(=N/N=C2CCC(C(C)(C)C)CC2)NC1=O` (stereo not given), the cell number change was determined as 19.7%. Also, the AC50 under setting [2] is 10.3 µM [rising, partial curve, poor fit].
Turning to `O=C(CSc1nc(NS(=O)(=O)c2ccccc2)cc(=O)[nH]1)Nc1ccc(Cl)cc1`, the cell number change is -29.3%. Moreover, under setting [2], the AC50 was 16.4 µM [falling, single point].
As for `O=C(COc1ccc(S(=O)(=O)N2CCOCC2)cc1)N1CCOCC1`, the cell number change amounted to 2.68%. The AC50 under setting [2] was 1.64 µM [falling, partial curve].
With `Cn1c(=N)n(CC(=O)O)c2ccccc21`, the cell number change was -202%. The AC50 under setting [1] was 1.64 µM [falling, full curve]. Besides, under setting [2], the AC50 was 29.1 µM [falling, single point].
As to `CCn1ncc([N+](=O)[O-])c1C(=O)N1CCc2ccccc2C1`, the cell number change was 18.4%. Also, the AC50 under setting [2] was 0.112 µM [falling, full curve, poor fit].
As for `CCOc1ccc(-c2c(C#N)c(N)nc3c2c(=O)n(C)c(=O)n3C)cc1OC`, the cell number change was 4.97%. Under setting [2], the AC50 is 5.8 µM [falling, single point].
Turning to `COc1nc(C)cc(C)c1S(=O)(=O)c1ccccc1`, the cell number change was -31.7%. Also, under setting [1], the AC50 was 4.61 µM [falling, full curve]. The AC50 under setting [2] is 6.51 µM [falling, single point].
In the case of `CC1(C)Cc2c(C#N)c(SCCC#N)nc(N3CCOCC3)c2CS1`, the AC50 under setting [2] is 1.84 µM [rising, partial curve].
For `COc1ccc(CCNC(=O)c2cc(-c3ccc4c(c3)OCO4)on2)cc1OC`, the cell number change is 26.8%. Moreover, the AC50 under setting [1] was 0.0259 µM [rising, full curve, poor fit]. Further, the AC50 under setting [2] is 0.0366 µM [rising, full curve, poor fit].
`COC(=O)c1c(N2C(=O)CCC2=O)sc2c1CCCC2`: the cell number change came out at 5.35%. The AC50 under setting [2] is 6.51 µM [rising, single point].
Take `NC(=O)N/N=C/c1ccc(-n2nncc2-c2ccc(Cl)cc2)cc1`: the cell number change was -2.14%. Also, the AC50 under setting [2] was 20.6 µM [falling, partial curve].
With `COc1cc(CNCc2cccs2)cc(Br)c1OC`, the cell number change came to 59.3%.
Consider `CC(C)(C)OC(=O)N1CCC(C(=O)N[C@@H](Cc2ccccc2)C(=O)O)CC1`, for which the cell number change is -33.6%. Under setting [1], the AC50 is 1.03 µM [falling, full curve]. In addition, under setting [2], the AC50 is 1.46 µM [falling, full curve].
For `Cc1cccnc1NC(=O)C(C)N1C(=O)c2ccccc2C1=O` (stereo not given), the cell number change is 19.2%. The AC50 under setting [2] was 0.184 µM [rising, full curve, poor fit].
Regarding `CCOc1cc(S(=O)(=O)N2CCCCCC2)ccc1F`, the cell number change came to 6%. Moreover, the AC50 under setting [2] is 29.1 µM [falling, single point].
As for `Cc1ccc(S(=O)(=O)/C(C#N)=C/c2c(N3CCOCC3)nc3c(C)cccn3c2=O)cc1`, the cell number change was determined as 2.95%. For the same molecule, under setting [2], the half-maximal activity concentration (AC50) is 0.0731 µM [rising, full curve, poor fit].
Consider `O=C(CSc1ncn(-c2ccccc2)n1)Nc1nc2c(s1)CCCC2`, for which the AC50 is, setting by setting: under setting [1], 2.91 µM [rising, partial curve]; under setting [2], 20.6 µM [rising, partial curve].
Take `CCOc1ccc(S(=O)(=O)NCc2ccccc2)cc1C(N)=O`: the cell number change is -16.7%. For the same molecule, the AC50 under setting [2] was 10 µM [falling, partial curve].
In the case of `Cc1cccc(NC(=S)NCc2ccccc2Cl)c1C`, the cell number change was -15%.
Still for that read-out and setting: under `CCOC(=O)CN1CC23C=CC(O2)C(C(=O)Nc2ccc(OC)cc2OC)C3C1=O` (stereo not given) stands -2.42%.
Consider `COc1ccc2oc(C(=O)Nc3nc(-c4ccccn4)cs3)c(C)c2c1`, for which the cell number change was -73.3%. In addition, the half-maximal activity concentration (AC50) under setting [1] is 14.6 µM [falling, partial curve]. The AC50 under setting [2] was 18.4 µM [falling, single point].
Regarding `Cc1ccc(NC(=O)[C@@H](CC(C)C)NC(=O)[C@@H]2Cc3ccccc3CN2)cc1`, the cell number change is 20.6%. In addition, the half-maximal activity concentration (AC50) under setting [2] is 29.1 µM [rising, single point].
For the molecule `COc1cc(NC(=O)c2ccco2)c(OC)cc1NC(=O)CSc1ncc(-c2ccc(F)cc2)[nH]1`, the cell number change was -15.3%. In addition, under setting [2], the AC50 is 7.31 µM [falling, single point].
For the molecule `Cc1ccc(S(=O)(=O)Nc2cccc(C(=O)N3CCN(c4ccccc4O)CC3)c2)cc1F`, the cell number change was 12.3%.
Turning to `CC(=O)N1CCN(c2ccc(NC(=O)c3ccc4c(c3)OCO4)cc2)CC1`, the cell number change worked out at 6.85%. The AC50 under setting [2] was 0.0326 µM [rising, full curve, poor fit].
Consider `N#C/C(=C\c1ccc(Sc2nc3ccccc3[nH]2)o1)c1ccccc1`, for which the AC50 runs as follows: under setting [1], 3.66 µM [rising, partial curve, poor fit]; under setting [2], 2.06 µM [rising, partial curve].
For the molecule `CCC(C(=O)Oc1c(C(C)C)cccc1C(C)C)c1ccccc1` (stereo not given), the cell number change was -34.9%. Besides, the AC50 under setting [1] was 9.2 µM [falling, single point]. Moreover, the AC50 under setting [2] was 0.461 µM [rising, single point].
For `CC1(C)Cc2c(C#N)c(N3CCN(C(=O)c4ccco4)CC3)nc(-c3ccco3)c2CS1`, the cell number change was -24.6%. Also, the AC50 under setting [2] is 10.3 µM [falling, single point].
On to `CCC(N=c1cc(-c2ccc(OC)cc2)oc2ccc(C)cc12)C(=O)O` (stereo not given), for which the cell number change was -50%. In addition, the AC50 under setting [1] was 29.1 µM [falling, partial curve, poor fit].
Take `CCc1sc(C(=O)NNC(=O)CNC(=O)c2ccccc2F)cc1C`: the cell number change is -8.77%. For the same molecule, the AC50 under setting [2] is 0.0058 µM [rising, full curve, poor fit].
As for `CCOC(=O)c1c(C)oc2c1c(CN1CCN(C(=O)OCC)CC1)c(O)c1ccccc12`, the cell number change is -65.1%. The AC50 under setting [1] was 13 µM [falling, partial curve].

The values are drawn from PubChem BioAssay AID2685 (National Center for Advancing Translational Sciences (NCATS), 2010).
